Results published in patent publication US20220079944A1, “2H-INDAZOLE DERIVATIVES AS THERAPEUTIC AGENTS FOR BRAIN CANCERS AND BRAIN METASTASES” (BETA PHARMA, INC., priority 2019, published 2022).

System: MDR1 (P-gp)
Test: in vitro
Conditions: dog, MDCK-MDR1

## CC(C)NCC(O)COc1ccc(CC(N)=O)cc1 (stereo not shown) [Atenolol]
  Papp: 0.06 ×10⁻⁶ cm/s
